The experiment addresses T1, 5-LO-activating protein (human (endogenous in monocytes)) (UniProt P20292).
T1 sequence: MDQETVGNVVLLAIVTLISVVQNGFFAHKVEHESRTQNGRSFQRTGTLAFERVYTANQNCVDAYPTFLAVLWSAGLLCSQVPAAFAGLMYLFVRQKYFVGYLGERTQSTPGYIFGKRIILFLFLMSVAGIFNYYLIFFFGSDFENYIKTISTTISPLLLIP
As to the kind of experiment: proximity ligation; in situ in human monocytes on coverslips; pre-incubated with vehicle (0.1% DMSO), 3 µM α-T-13′-COOH (4a) or δ-TE-13′-COOH (4h) for 15 min at 37 °C, stimulated with A23187 ([…], 10 min, 37 °C), fixed with paraformaldehyde, permeabilised with acetone; antibodies against 5-LO and FLAP; signal possible when the two are <40 nm apart.

Results are given in words; binding and its absence hold for the method and conditions named. Binding seen in cells or lysates may run through a third protein. Some results given as binding are weak or reduced against the parent protein; the word gives no strength.

B1: 5-lipoxygenase (enzyme, UniProt P09917 1-674)
chain: MPSYTVTVATGSQWFAGTDDYIYLSLVGSAGCSEKHLLDKPFYNDFERGAVDSYDVTVDEELGEIQLVRIEKRKYWLNDDWYLKYITLKTPHGDYIEFPCYRWITGDVEVVLRDGRAKLARDDQIHILKQHRRKELETRQKQYRWMEWNPGFPLSIDAKCHKDLPRDIQFDSEKGVDFVLNYSKAMENLFINRFMHMFQSSWNDFADFEKIFVKISNTISERVMNHWQEDLMFGYQFLNGCNPVLIRRCTELPEKLPVTTEMVECSLERQLSLEQEVQQGNIFIVDFELLDGIDANKTDPCTLQFLAAPICLLYKNLANKIVPIAIQLNQIPGDENPIFLPSDAKYDWLLAKIWVRSSDFHVHQTITHLLRTHLVSEVFGIAMYRQLPAVHPIFKLLVAHVRFTIAINTKAREQLICECGLFDKANATGGGGHVQMVQRAMKDLTYASLCFPEAIKARGMESKEDIPYYFYRDDGLLVWEAIRTFTAEVVDIYYEGDQVVEEDPELQDFVNDVYVYGMRGRKSSGFPKSVKSREQLSEYLTVVIFTASAQHAAVNFGQYDWCSWIPNAPPTMRAPPPTAKGVVTIEQIVDTLPDRGRSCWHLGAVWALSQFQENELFLGMYPEEHFIEKPVKEAMARFRKNLEAIVSVIAERNKKKQLPYYYLSPDRIPNSVAI
For B1, the binding entry is recorded as “binds”.

Source of the values: PMC6148290, “Endogenous metabolites of vitamin E limit inflammation by targeting 5-lipoxygenase” (Nature Communications, 2018).
